The experiment concerns the target Potorous tridactylus CPD photolyase (Potorous tridactylus). Briefly: co-IP; PtCPD-PL precipitated with anti-PtCPD-PL antibodies from HEK293T cells transiently expressing PtCPD-PL with Flag-Clock or Flag-Bmal1; immunoblot with anti-FLAG and anti-PtCPD-PL antibodies.

These are yes or no findings as the source states them, for the method shown. In cells and extracts the contact can be indirect. Binding calls can cover weak binding; strength is not graded here. Tags and fused reporters may be left off the sequences shown.

B1: FLAG-CLOCK (protein, UniProt O08785 1-855)
chain: MVFTVSCSKMSSIVDRDDSSIFDGLVEEDDKDKAKRVSRNKSEKKRRDQFNVLIKELGSMLPGNARKMDKSTVLQKSIDFLRKHKETTAQSDASEIRQDWKPTFLSNEEFTQLMLEALDGFFLAIMTDGSIIYVSESVTSLLEHLPSDLVDQSIFNFIPEGEHSEVYKILSTHLLESDSLTPEYLKSKNQLEFCCHMLRGTIDPKEPSTYEYVRFIGNFKSLTSVSTSTHNGFEGTIQRTHRPSYEDRVCFVATVRLATPQFIKEMCTVEEPNEEFTSRHSLEWKFLFLDHRAPPIIGYLPFEVLGTSGYDYYHVDDLENLAKCHEHLMQYGKGKSCYYRFLTKGQQWIWLQTHYYITYHQWNSRPEFIVCTHTVVSYAEVRAERRRELGIEESLPETAADKSQDSGSDNRINTVSLKEALERFDHSPTPSASSRSSRKSSHTAVSDPSSTPTKIPTDTSTPPRQHLPAHEKMTQRRSSFSSQSINSQSVGPSLTQPAMSQAANLPIPQGMSQFQFSAQLGAMQHLKDQLEQRTRMIEANIHRQQEELRKIQEQLQMVHGQGLQMFLQQSNPGLNFGSVQLSSGNSNIQQLTPVNMQGQVVPANQVQSGHISTGQHMIQQQTLQSTSTQQSQQSVMSGHSQQTSLPSQTPSTLTAPLYNTMVISQPAAGSMVQIPSSMPQNSTQSATVTTFTQDRQIRFSQGQQLVTKLVTAPVACGAVMVPSTMLMGQVVTAYPTFATQQQQAQTLSVTQQQQQQQQQPPQQQQQQQQSSQEQQLPSVQQPAQAQLGQPPQQFLQTSRLLHGNPSTQLILSAAFPLQQSTFPPSHHQQHQPQQQQQLPRHRTDSLTDPSKVQPQ
For the molecule B1, the binding result was “binds”.

The record behind these values is PMC3156801.
